Laboratory results reported in the supplement of paper PMC5949888.
Most values lie at the floor of the assay. Slopes are relative: functional sequences can read slightly below zero.

These substances were tested on Saccharomyces cerevisiae PS128 hsf1 delta, HSF1(1-493) fusion (assay: growth estimate (transactivation domain function in HSF1 fusion, heat-shock survival) (a.u. (slope of normalised read count over time)); higher = stronger growth at 37°C, i.e. more transactivation activity). Settings: library: random library.
Experimental: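 Random 60-nt DNA library encoding peptides of up to 20 aa, fused to the C-terminus of yeast HSF1 residues 1-493 (C-terminal TAD deleted) and expressed from the native HSF1 promoter on a CEN plasmid in hsf1-deleted S. cerevisiae PS128. Cells were selected at 37°C on -trp 5-FOA plates for 0, 2, 4, 6 and 8 days and amplicons were sequenced. Growth estimate is the slope of a robust linear fit of total-sum-normalised read counts (normalised to the first time point) over time, using at least 2 replicates. Sequences are classed functional (TAD activity) above a threshold of -0.13, set from stop-codon control sequences.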
GSGMAVAQERAYAPFVLE gave a growth estimate of less than -0.25.
GSGNFTMSPAEPLIS gave a growth estimate of -0.243.
GSGPSRYSRLAGEKRKFKKG was tested, and the growth estimate was less than -0.25.
Work on GSGRKRYGSSCYGKSHSHTR yielded a growth estimate of less than -0.25.
Substance GSGRVARNNKDSDTRALVAS has a growth estimate of less than -0.25.
For GSHDENWTWGFVYNTLSHFG, the growth estimate was 0.0018.
GSHV was tested, and the growth estimate was less than -0.25.
GSIDSKRRIATGIRAKDVLW was tested, and the growth estimate was less than -0.25.
GSIGTGQWNHECHRGYSHVA gave a growth estimate of less than -0.25.
With GSIMTLGN the growth estimate was less than -0.25.
For GSINGSASSSQSYVITRFSS, the growth estimate was less than -0.25.
GSIREPRAS gave a growth estimate of less than -0.25.
Substance GSIVGGRLGPNV has a growth estimate of less than -0.25.
GSKRARIGLSRAL showed a growth estimate of less than -0.25.
GSKRLHSCARDFSYDAEQVD showed a growth estimate of less than -0.25.
With GSLG the growth estimate was less than -0.25.
GSLGRDAVPYP gave a growth estimate of less than -0.25.
For GSLQFDF, the growth estimate was less than -0.25.
For GSLQYRSRAEKDSGQGVSQR, the growth estimate was less than -0.25.
With GSLR the growth estimate was less than -0.25.
In the case of GSLVLSPVPQGPATG, the growth estimate is reported as less than -0.25.
Substance GSNATQRQ has a growth estimate of less than -0.25.
GSNGGGYPSSPDRGAQVTHR was tested, and the growth estimate was less than -0.25.
GSNKEELGTLMAVNFPPKGT showed a growth estimate of less than -0.25.
GSNMYTSFHH was tested, and the growth estimate was less than -0.25.
Substance GSNRDTKRWLP has a growth estimate of less than -0.25.
Substance GSNRTILQKHVVPVSTSIGQ has a growth estimate of less than -0.25.
GSPGTLGLDRKRTDPLRTIC was tested, and the growth estimate was less than -0.25.
GSPKEGCYTGVSG was tested, and the growth estimate was less than -0.25.
For GSPNPAIRATNNLANGSHSR, the growth estimate was less than -0.25.
Substance GSPWGRDRPRGSLELHTTTS has a growth estimate of less than -0.25.
GSQFPYRQTGPYLVGEVAYC was tested, and the growth estimate was less than -0.25.
Substance GSQKNCDLQSAAFIQRACDC has a growth estimate of less than -0.25.
GSQTKSVYLNQEDRSSANGS was tested, and the growth estimate was less than -0.25.
GSRDAAGWKCGVGFKTVSLG showed a growth estimate of less than -0.25.
GSRIHDIAWPSGFVASHHQK showed a growth estimate of less than -0.25.
For GSRKQSETQSTWARLLERLC, the growth estimate was less than -0.25.
With GSRLTMTPFVVRLPQCWGIG the growth estimate was less than -0.25.
GSRMPARFGRDKSSRTPD showed a growth estimate of less than -0.25.
With GSRVDRCGISARLSGIETLG the growth estimate was less than -0.25.
GSSEARRTGVG was tested, and the growth estimate was less than -0.25.
GSSEHPPLH was tested, and the growth estimate was less than -0.25.
GSSFTAQSRLSYVAFAIHIR gave a growth estimate of less than -0.25.
GSSHGQCTGPGTIGGHRASI was tested, and the growth estimate was less than -0.25.
In the case of GSSIIRSWALC, the growth estimate is reported as less than -0.25.
GSSIQSQGYPGLVGSSHRLE was tested, and the growth estimate was -0.0559.
GSSLCSVLVSGIESHASPFD was tested, and the growth estimate was less than -0.25.
GSSLVYNPWG was tested, and the growth estimate was less than -0.25.
Substance GSSTPTKSKNPRACLKGGFE has a growth estimate of less than -0.25.
Substance GSTKVVISTKKSQPNSSTL has a growth estimate of less than -0.25.
Substance GSTRSLPACVILAKRSLWGL has a growth estimate of less than -0.25.
GSTTWSGNVYAMLRT gave a growth estimate of less than -0.25.
GSTVQRGPSRRLSHNPTHFR gave a growth estimate of less than -0.25.
GSVGLVDTTRLSDEVASEA gave a growth estimate of less than -0.25.
GSVPEFPRGFLLRSDLLFLR showed a growth estimate of less than -0.25.
For GSVPRMIPCSTRVADNAS, the growth estimate was less than -0.25.
For GSVTHHVSRKATWIREAFMR, the growth estimate was less than -0.25.
GSWQSNGHHIFAFGVGSPWL gave a growth estimate of less than -0.25.
In the case of GSYG, the growth estimate is reported as less than -0.25.
With GSYQKVVNCMAL the growth estimate was less than -0.25.
Work on GSYQRRSLVYIHLTCRRTVQ yielded a growth estimate of less than -0.25.
GSYRTMAKNHAPGY was tested, and the growth estimate was less than -0.25.
GSYVMFCGRPD gave a growth estimate of less than -0.25.
Substance GTASS has a growth estimate of less than -0.25.
With GTAVAYWIDRYTGKWPRVIK the growth estimate was less than -0.25.
In the case of GTCDAACGLFTPHFRSMCLG, the growth estimate is reported as less than -0.25.
In the case of GTCSGRTNRPRVWVIPCARL, the growth estimate is reported as less than -0.25.
For GTDESGGKV, the growth estimate was less than -0.25.
Substance GTGGRGGAWRVLNDLSGHQL has a growth estimate of less than -0.25.
Work on GTGPEAGLLVKTGLDAGKQA yielded a growth estimate of less than -0.25.
For GTGPRLVPTVRPSVMRWDIA, the growth estimate was less than -0.25.
With GTGRLIGTVV the growth estimate was less than -0.25.
GTGRQFIRCLMSVE showed a growth estimate of less than -0.25.
With GTICGLTTIFLAETRGLSCV the growth estimate was less than -0.25.
GTIGRQSLTGYF gave a growth estimate of less than -0.25.
GTKRLEVFDLTYTLRVLLRP gave a growth estimate of less than -0.25.
For GTLDP, the growth estimate was less than -0.25.
Substance GTLESSRSQQSS has a growth estimate of less than -0.25.
In the case of GTNETMPAK, the growth estimate is reported as less than -0.25.
Substance GTPAGFPEMRRLKARLVG has a growth estimate of less than -0.25.
For GTPNIRRRSRQP, the growth estimate was less than -0.25.
With GTPTRPSGAH the growth estimate was -0.219.
For GTPYIKRLESAFFMSVDSRF, the growth estimate was less than -0.25.
For GTQASTGASKRCCRGVHLQR, the growth estimate was less than -0.25.
GTRKRRCRG was tested, and the growth estimate was less than -0.25.
GTRRF was tested, and the growth estimate was less than -0.25.
In the case of GTRRPTGHCDLHGNSSLVLT, the growth estimate is reported as -0.245.
GTRYAHTR showed a growth estimate of less than -0.25.
GTSEPALTQ was tested, and the growth estimate was less than -0.25.
For GTSFQDFTSRVHVVCVGRCG, the growth estimate was less than -0.25.
For GTSFTRMIFS, the growth estimate was less than -0.25.
In the case of GTSGFYGTGGSEQGSVSVVN, the growth estimate is reported as less than -0.25.
GTSGSHHA was tested, and the growth estimate was less than -0.25.
Work on GTSGSMDIQSILFNLLH yielded a growth estimate of less than -0.25.
With GTSPLWRVSPAA the growth estimate was less than -0.25.
